# Screening data, single-dose tests

Sequences of proteins named here, by UniProt entry; tags and fusion partners are left off. Residues count along the entry.
UniProt I6X8D2, whole entry: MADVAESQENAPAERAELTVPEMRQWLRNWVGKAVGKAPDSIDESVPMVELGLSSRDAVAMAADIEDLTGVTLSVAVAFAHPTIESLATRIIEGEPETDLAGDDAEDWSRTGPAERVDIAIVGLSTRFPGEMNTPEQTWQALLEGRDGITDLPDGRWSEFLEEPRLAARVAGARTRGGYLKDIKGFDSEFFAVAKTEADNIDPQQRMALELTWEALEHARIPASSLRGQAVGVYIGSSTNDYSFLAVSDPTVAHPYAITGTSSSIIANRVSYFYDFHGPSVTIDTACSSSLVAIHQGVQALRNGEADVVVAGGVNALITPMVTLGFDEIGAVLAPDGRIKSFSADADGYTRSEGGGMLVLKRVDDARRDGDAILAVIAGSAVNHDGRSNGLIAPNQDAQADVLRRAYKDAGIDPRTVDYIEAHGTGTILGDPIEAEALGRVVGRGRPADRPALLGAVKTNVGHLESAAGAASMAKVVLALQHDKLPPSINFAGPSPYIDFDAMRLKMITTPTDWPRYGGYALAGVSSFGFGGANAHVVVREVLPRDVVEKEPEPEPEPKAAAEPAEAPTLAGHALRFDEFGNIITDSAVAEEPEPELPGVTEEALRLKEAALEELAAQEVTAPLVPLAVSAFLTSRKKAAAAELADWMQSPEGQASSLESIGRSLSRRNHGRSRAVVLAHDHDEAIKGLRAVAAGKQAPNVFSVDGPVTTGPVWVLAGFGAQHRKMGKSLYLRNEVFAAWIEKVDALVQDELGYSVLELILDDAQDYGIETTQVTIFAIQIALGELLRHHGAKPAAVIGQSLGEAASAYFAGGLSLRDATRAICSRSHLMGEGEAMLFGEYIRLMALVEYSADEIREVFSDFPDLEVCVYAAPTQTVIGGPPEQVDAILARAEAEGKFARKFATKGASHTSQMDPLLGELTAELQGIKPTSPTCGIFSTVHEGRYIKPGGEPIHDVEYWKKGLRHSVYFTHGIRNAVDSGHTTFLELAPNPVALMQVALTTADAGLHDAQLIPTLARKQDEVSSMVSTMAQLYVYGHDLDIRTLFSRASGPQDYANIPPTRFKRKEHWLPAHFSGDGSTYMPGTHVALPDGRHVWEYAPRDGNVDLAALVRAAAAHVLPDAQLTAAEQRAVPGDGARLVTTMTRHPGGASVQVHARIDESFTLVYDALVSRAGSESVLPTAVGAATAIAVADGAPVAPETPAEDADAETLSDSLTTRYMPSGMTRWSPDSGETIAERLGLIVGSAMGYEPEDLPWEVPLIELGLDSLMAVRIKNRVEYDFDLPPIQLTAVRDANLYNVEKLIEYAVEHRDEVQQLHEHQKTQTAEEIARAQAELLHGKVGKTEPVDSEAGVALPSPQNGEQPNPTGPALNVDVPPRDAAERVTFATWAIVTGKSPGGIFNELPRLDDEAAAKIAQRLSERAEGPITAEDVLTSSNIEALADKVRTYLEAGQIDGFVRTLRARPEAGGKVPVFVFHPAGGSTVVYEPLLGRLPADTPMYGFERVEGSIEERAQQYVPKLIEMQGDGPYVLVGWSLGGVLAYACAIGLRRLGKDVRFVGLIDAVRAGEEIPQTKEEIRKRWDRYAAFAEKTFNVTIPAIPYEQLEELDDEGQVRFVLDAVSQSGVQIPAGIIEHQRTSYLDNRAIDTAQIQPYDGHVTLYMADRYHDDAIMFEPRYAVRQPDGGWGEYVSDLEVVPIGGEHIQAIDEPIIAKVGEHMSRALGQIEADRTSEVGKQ
UniProt Q8IDJ8, 1-583: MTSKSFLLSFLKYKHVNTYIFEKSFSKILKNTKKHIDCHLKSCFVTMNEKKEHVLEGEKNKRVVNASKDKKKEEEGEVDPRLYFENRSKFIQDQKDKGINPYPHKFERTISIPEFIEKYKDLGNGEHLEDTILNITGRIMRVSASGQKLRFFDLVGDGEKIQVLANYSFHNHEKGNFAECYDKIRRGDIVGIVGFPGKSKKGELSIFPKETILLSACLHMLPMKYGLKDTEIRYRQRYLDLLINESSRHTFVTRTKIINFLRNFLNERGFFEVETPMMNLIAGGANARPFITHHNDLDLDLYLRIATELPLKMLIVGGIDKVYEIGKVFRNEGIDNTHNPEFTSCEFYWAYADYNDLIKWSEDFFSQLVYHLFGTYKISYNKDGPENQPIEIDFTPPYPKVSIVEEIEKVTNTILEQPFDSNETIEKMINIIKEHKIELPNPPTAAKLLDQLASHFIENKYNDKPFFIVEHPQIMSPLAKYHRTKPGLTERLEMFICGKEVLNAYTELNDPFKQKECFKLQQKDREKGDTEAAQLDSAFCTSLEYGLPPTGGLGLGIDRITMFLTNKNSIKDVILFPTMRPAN
UniProt A4I591, 1-473: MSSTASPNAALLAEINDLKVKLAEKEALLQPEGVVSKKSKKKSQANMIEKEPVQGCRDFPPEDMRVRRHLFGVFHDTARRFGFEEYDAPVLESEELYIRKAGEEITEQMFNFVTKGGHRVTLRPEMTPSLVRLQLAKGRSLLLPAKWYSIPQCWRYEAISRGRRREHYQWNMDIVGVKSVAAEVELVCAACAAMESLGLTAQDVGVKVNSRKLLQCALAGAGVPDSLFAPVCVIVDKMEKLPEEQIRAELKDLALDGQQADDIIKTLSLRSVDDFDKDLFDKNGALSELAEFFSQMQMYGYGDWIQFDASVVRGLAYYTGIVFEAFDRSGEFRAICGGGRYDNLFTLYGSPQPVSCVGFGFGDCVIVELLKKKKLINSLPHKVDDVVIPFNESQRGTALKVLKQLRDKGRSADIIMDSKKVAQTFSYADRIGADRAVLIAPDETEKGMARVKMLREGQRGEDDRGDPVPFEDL
UniProt Q4DA54, 1-478: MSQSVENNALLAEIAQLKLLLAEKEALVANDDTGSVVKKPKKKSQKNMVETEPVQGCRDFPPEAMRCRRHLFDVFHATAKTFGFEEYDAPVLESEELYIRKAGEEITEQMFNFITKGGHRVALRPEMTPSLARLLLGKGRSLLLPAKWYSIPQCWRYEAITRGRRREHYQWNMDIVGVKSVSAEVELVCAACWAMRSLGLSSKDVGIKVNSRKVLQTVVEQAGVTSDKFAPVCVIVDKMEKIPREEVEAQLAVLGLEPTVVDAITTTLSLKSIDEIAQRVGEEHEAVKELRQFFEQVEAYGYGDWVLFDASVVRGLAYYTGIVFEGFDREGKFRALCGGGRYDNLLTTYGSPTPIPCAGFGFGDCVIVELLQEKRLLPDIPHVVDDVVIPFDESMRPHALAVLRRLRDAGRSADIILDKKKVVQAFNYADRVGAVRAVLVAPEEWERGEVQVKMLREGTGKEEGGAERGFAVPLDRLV

The values are deposited in ChEMBL (CHEMBL3988442, “University of Dundee, Small-Polar-MMV Screening Library” (2021)).

Pks13 thioesterase: 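Enzyme assay of the thioesterase domain of polyketide synthase 13; the read-out is not stated. Target: Polyketide synthase Pks13, Mycobacterium tuberculosis (UniProt I6X8D2). Compounds at 30 µM. Higher reads as stronger inhibition (inferred from which compounds were picked for retests). About 67,000 compounds were tested under these conditions; 0.46% (about 300) showed 50% or more at least once.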
PfKRS1: 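Lysine-tRNA ligase, Plasmodium falciparum 3D7 (UniProt Q8IDJ8). Enzyme assay of the cytosolic lysyl-tRNA synthetase in 384-well plates, read by luminescence. Concentration: 30 µM. Higher reads as stronger inhibition, judged from the few compounds that gave an IC50. About 69,000 compounds were tested under these conditions; 0.071% (about 49) showed 50% or more at least once.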
LiHisRS: 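Enzyme assay of histidyl-tRNA synthetase; the read-out is not stated. Target: Histidine-tRNA ligase, Leishmania infantum (UniProt A4I591). Tested at 30 µM. Higher reads as stronger inhibition (inferred: compounds with an IC50 in retests scored well above the rest). The assay is labelled LdHisRS but filed under L. infantum. About 69,000 compounds were tested under these conditions; 0.6% (about 410) showed 50% or more at least once.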
TcHisRS: 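Enzyme assay of histidyl-tRNA synthetase; the read-out is not stated. Target: Histidine-tRNA ligase, Trypanosoma cruzi CL Brener (UniProt Q4DA54). Compounds at 30 µM. Higher reads as stronger inhibition (inferred: compounds with an IC50 in retests scored well above the rest). Of about 69,000 compounds tested this way, about 31 (0.045%) reached 50% or more in at least one test.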

The filed quantity is “Percent Effect” (%). How 0% and 100% were set is not recorded. Most values in the screen are low, and negative values occur. Compounds were drawn at random from those tested, without regard to their results. A dash means the value is not listed here; it may have been measured.

| Compound | Pks13 thioesterase | PfKRS1 | LiHisRS | TcHisRS |
|---|---|---|---|---|
| `CCCc1nc(C)cc(N2CCC3(CCC(=O)N(CC(N)=O)C3)CC2)n1` | -27.59 | 2.08 | 13.11 | -1.163 |
| `O=C(Nc1ccc(-n2cccn2)cc1)N1CCC(O)C1` (centres undefined) | 0.5194 | -0.897 | 25 | -4.969 |
| `COc1cccc(CC(=O)N2CCC(Cc3nnc(SC)n3C)CC2)c1` | -47.96 | 5.622 | 20.51 | 1.149 |
| `COc1cc(C(=O)O)ccc1OCC(=O)NCCc1ccccc1` | -4.514 | 4.748 | 22.35 | 11.06 |
| `CN(CCn1ccc2ccccc21)C(=O)Cc1n[nH]c(=O)[nH]1` | -16.28 | -1.729 | 13.7 | 8.743 |
| `CCn1ncc2c1CCCC2NCc1cc(Cl)c(OC)c(OC)c1` (centres undefined) | -41.98 | 11.46 | 10.11 | 3.759 |
| `O=C(Cn1nc2c(cc1=O)CCCC2)NC(C(=O)O)c1ccccc1` (centres undefined) | -8.735 | 0.1167 | 6.897 | 1.775 |
| `CC(C)(C)OC(=O)N1CCC(NCc2cnn(C(C)(C)C)c2)CC1` | -37.22 | -0.837 | 18.31 | 10.83 |
| `CCOCc1cccc(S(=O)(=O)N2CCSCC2)c1` | -17.39 | 3.86 | 5.825 | 0.5464 |
| `O=C(Cn1ccc2ccc(Cl)cc21)/N=c1\[nH]nc(C2CCCO2)s1` (centres undefined) | 2.667 | -0.8378 | 0 | 0.9901 |
| `O=c1[nH]nc(CNCc2ccc(OC34CCCN(CC3)C4)cc2)[nH]1` (centres undefined) | -4.39 | 3.062 | 17.65 | 7.035 |
| `CC(=O)N1CCO[C@@H]2CN(C(=O)c3ccc4ncccc4c3)CC[C@@H]2C1` | -19.04 | 1.529 | 18.42 | 4.598 |
| `CCc1ccc(C(=O)N2CCN(c3nc(C)cc(OC)n3)CC2)o1` | -22.39 | -0.9246 | 6.14 | 3.198 |
| `COc1cccc(C(=O)Nc2ccc(OCCC(N)=O)cc2)c1OC` | -1.484 | 3.606 | 35.62 | 1.053 |
| `Cc1nc(C)n(CC2CCCN2Cc2nc(-c3ccoc3)no2)n1` (centres undefined) | -19.04 | -1.868 | 23.21 | 10.06 |
| `Cn1nnc2c1CCN(S(C)(=O)=O)C2COCC1CC1` (centres undefined) | -12.84 | 1.771 | 12.28 | 4.301 |
| `Cc1csc(N2CCN(CC(=O)Nc3c(C)n[nH]c3C)CC2C)n1` (centres undefined) | -9.834 | -2.99 | 9.231 | -1.149 |
| `CN(C)Cc1ccnc(C2CCCN2Cc2ccc3ncccc3c2)n1` (centres undefined) | 7.559 | 2.177 | 30.93 | 22.22 |
| `CN1CCOC(C)(C(=O)Nc2nccs2)C1` (centres undefined) | -27.97 | -0.4983 | -5.755 | -1.149 |
| `Cc1cc(C)n(CCNC(=O)c2ncc[nH]2)c(=O)n1` | -10.49 | 1.026 | 9.917 | -4.082 |
| `CNC(=O)c1ccc(CNC(=O)NCCN(C)C2CCCC2)cc1` | -5.416 | -0.3599 | 2.632 | 0.8721 |
| `O=C(c1cnc(Nc2ccccc2)nc1)N1CCC2(CCNCC2)CC1` | - | 0 | 10 | 4.545 |
| `Cc1cnc(C(=O)N(CCN(C)C)Cc2ccc(Cl)cc2)cn1` | 3.154 | 3.881 | 24.04 | 1.626 |
| `COCCN1CCOCC12CCN(C(=O)c1ccoc1)CC2` | -5.098 | 6.04 | 19.27 | 9.244 |
| `CC1CCCN(C(=O)Nc2cccc(CN3CCOC3=O)c2)C1` (centres undefined) | -13.31 | -1.068 | 13.58 | 1.339 |
| `COc1cc(C(=O)N2CCC(Nc3cccnc3)CC2)ccc1C` | -8.451 | 0.4245 | 20.21 | 11.06 |
| `COCCn1nc(C(=O)N2CCCC2c2cccc(F)c2)ccc1=O` (centres undefined) | -19.79 | 1.318 | 15.38 | -3.333 |
| `COC(=O)CN(C(=O)c1ccc(Cl)cn1)c1cccc(F)c1` | -3.162 | 1.479 | 12 | 6.024 |
| `CC(=O)N1CC[C@H](c2nnc(Cc3c[nH]c4ccccc34)o2)C1` | -28.81 | 6.093 | 24.32 | 6.468 |
| `CCC(O)CN1CCN(C(=O)C2(c3ccc(C)c(OC)c3)CC2)CC1` (centres undefined) | -12.83 | 1.539 | 2.74 | 8.108 |
| `CCCNC(=O)CN(C)C1CCN(c2ccc(Cl)cc2)CC1` | -7.738 | 4.218 | 10 | 4.819 |
| `C[C@@H]1CN(c2nc(N)nc3c2CCC3)CC[C@@]1(O)C1CCC1` | -33.42 | 9.003 | 13.22 | 0.8403 |
| `Cc1ccc(CN2C[C@@H](OCc3ccccn3)[C@H]3COC[C@H]32)o1` | -6.486 | 1.35 | 8.182 | 0 |
| `O=C(CCc1cc(O)no1)N1CCCC(COc2ccc(F)cc2)C1` (centres undefined) | -18.4 | 2.24 | 14.42 | 0.813 |
| `Cc1nccc(-c2cccc(-c3ccn(CC4CCNC4)n3)c2)n1` (centres undefined) | -4.614 | -0.8005 | -1.639 | 8.8 |
| `COc1cc(CN2CCCC2)ccc1Oc1ncccc1C(F)(F)F` | -8.172 | 7.864 | 19.17 | 0 |
| `COC(=O)N1CCC(NC(=O)Cn2cc(C)c3ccccc32)CC1` | - | -0.2856 | 18.18 | -1.058 |
| `COc1cccc(OCC(=O)NS(=O)(=O)c2cccnc2)c1` | -19.85 | 0.3069 | 14.68 | 5.882 |
| `O=C(Nc1cccnc1)[C@H]1CO[C@H]2CCN(c3ncc(F)cn3)C[C@H]2C1` | -7.065 | 2.088 | 22.64 | 8.108 |
| `CCCc1ccc(CN2CCC3(CCC(=O)N(C)CC3)CC2)o1` | -3.841 | -2.147 | 11.67 | 1.739 |
| `COCCN(Cc1ccc(F)cc1Cl)C(=O)c1cc[n+]([O-])cc1` | -27.31 | -4.063 | 4.11 | 5.911 |
| `O=C(NCCCO)C1CC(=O)N(c2n[nH]c3cccc(F)c23)C1` (centres undefined) | -15.32 | 1.668 | 11.65 | -4.918 |
| `CCc1nc(CN(C)C(=O)C2CC(=O)N(c3cccc(O)c3)C2)no1` (centres undefined) | 5.474 | 3.052 | 15.2 | -0.5025 |
| `CC(C)(C)c1nc(CN(CCO)Cc2cc(Br)ccc2F)no1` | -1.153 | -2.487 | -4.167 | -4.167 |
| `CCC(Nc1cccc(OC)c1)C(=O)NCc1nc(C)cc(=O)[nH]1` (centres undefined) | -2.647 | 4.64 | 22.95 | -0.4292 |
| `CCn1ccc(C(=O)N2CCOC(c3nc(-c4cccs4)no3)C2)n1` (centres undefined) | 26.71 | 3.857 | 18.84 | 6.593 |
| `Cc1ccc(C(=O)Nc2ccc(N3CCCC3)cn2)cc1F` | -25.25 | 4.223 | 10.34 | 4.712 |
| `CCc1nn(C)c(Cl)c1CN1CCN(c2ccc(Cl)nn2)CC1` | 12.27 | -1.227 | 14.47 | 1.478 |
| `CCCOCCCNc1nccc(-c2cn(C)nc2C)n1` | -15.03 | 2.61 | 19.05 | 0 |
| `COc1ccc(CN2CCC(c3cc(O)nc(C)n3)C2)c(OC)c1` (centres undefined) | 22.98 | 3.921 | 18.84 | 12.09 |
| `Cc1ccc(N(CCC#N)C(=O)CCc2cscn2)cc1C` | -48.24 | 2.505 | 8.29 | 4.972 |
| `COc1cccc(CC(=O)N2CCc3ncnc(NCCO)c3CC2)c1` | -2.141 | -0.1434 | 4.651 | 5.952 |
| `Brc1ccc(NCc2ccc(Cn3ccnc3)cc2)nc1` | -3.437 | 4.557 | 27.43 | 11.95 |
| `CNC(=O)CCCNCc1c(C)nn(C)c1N(C)C` | -10.85 | 2.204 | 6.383 | 7.634 |
| `Cc1cc(C(=O)N2CCN(c3nc4ccccc4s3)CC2)no1` | 49.17 | -0.3154 | 19.57 | 9 |
| `Cc1cc(CN(C)Cc2cnc3c(c2)c(C)nn3C)no1` | 42.74 | -5.053 | -3.665 | 1.604 |
| `Cc1c(S(=O)(=O)NCC(C)Cn2cc(Cl)cn2)cnn1C` (centres undefined) | -2.723 | 2.038 | -3.704 | 0.4464 |
| `CC(C)Nc1nc2c(c(NC3CC3)n1)CN(C(=O)c1ccncc1)CC2` | 22.33 | -2.443 | -1.709 | 9.816 |
| `COC(=O)c1ccc(NC(=O)[C@@H]2CCCN2C(=O)c2ccco2)s1` | -24.87 | -1.04 | 12.12 | 3.175 |
| `O=C(NCc1ccccn1)C1CN(c2nc3ccccc3s2)CCN1` (centres undefined) | -37.83 | 0.8157 | 15.79 | 1.676 |
| `CN1CCN(S(=O)(=O)c2ccc(C(=O)N3CC[C@@H](O)C3)cc2)CC1=O` | -31.87 | -1.354 | 7.692 | 3.093 |
| `N#Cc1ccc(NCCc2n[nH]c(=O)[nH]2)cc1Cl` | -33.12 | 1.391 | 17.5 | 2.632 |
| `Cc1ccc(N2CCCN(C(=O)CCC3CCCO3)CC2)nn1` (centres undefined) | -4.824 | 1.314 | 8.929 | 4.07 |
| `CC(C)CC(=O)N1CCC2(CC1)NC(=O)[C@H]1CN(C(=O)N(C)C)C[C@H]12` | -34.47 | 3.029 | 15.53 | 4.854 |
| `CC(Cc1c(F)cccc1F)NC(=O)CN(CC(N)=O)C(C)C` (centres undefined) | -19.02 | 7.629 | 5.479 | 5.946 |

Once more, the final 4:

{"compound": "N#Cc1ccc(NCCc2n[nH]c(=O)[nH]2)cc1Cl", "Pks13 thioesterase": -33.12, "PfKRS1": 1.391, "LiHisRS": 17.5, "TcHisRS": 2.632}
{"compound": "Cc1ccc(N2CCCN(C(=O)CCC3CCCO3)CC2)nn1", "stereo": "centres undefined", "Pks13 thioesterase": -4.824, "PfKRS1": 1.314, "LiHisRS": 8.929, "TcHisRS": 4.07}
{"compound": "CC(C)CC(=O)N1CCC2(CC1)NC(=O)[C@H]1CN(C(=O)N(C)C)C[C@H]12", "Pks13 thioesterase": -34.47, "PfKRS1": 3.029, "LiHisRS": 15.53, "TcHisRS": 4.854}
{"compound": "CC(Cc1c(F)cccc1F)NC(=O)CN(CC(N)=O)C(C)C", "stereo": "centres undefined", "Pks13 thioesterase": -19.02, "PfKRS1": 7.629, "LiHisRS": 5.479, "TcHisRS": 5.946}